Some compounds share one wording; it may come from a single statement.
The compounds below were run on HepG2 cells (assay: LC-MS/MS targeted intracellular metabolomics). Conditions: intermediate concentration (C3; C2 for aroclor), 48 h.
Type: cell-based, human
Procedure: Metabolite profiling of cells was performed directly in the same 96-well plate according to a standardized protocol described below. In order to prevent any interaction with the cell material, the automatic sampler was adjusted to pick up the sample from the supernatant at a specified depth avoiding the contact with the bottom of the plate.
After the initial quenching step (50 μL isopropanol 80%), additional 70 μL of isopropanol 80%, containing internal standards (methionine-D3, tryptophan-D5, arginine-13C6-15N4, Boc-Ala-Gly-Gly-Gly-OH, coenzyme Q1, coenzyme Q2, coenzyme Q4) were added to each well. The internal standards were used for quality control by visual inspection (signal intensity, peak shape, retention time); they were not used for normalization. Afterwards, plates were shaken for 5 min, 750 rpm at 20 °C, and placed for 30 s in the ultrasonic device. Then, the plates were centrifugated for 10 min, at 5485 g, 15 °C. Further, 2.5 μL of the extract were injected each for reversed-phase and hydrophilic interaction liquid chromatography followed by MS/MS detection (AB Sciex QTrap 6500+) using the positive and negative ionization mode. For reverse-phase high-performance liquid chromatography (RP-HPLC, Ascentis Express C18, 5 cm × 2.1 mm, 2.7 μm Supelco), gradient elution was performed with mobile phase A, water/methanol/0.1 M ammonium formate (1:1:0.02, w/w), and B, methyl-tert-butylether/2-propanol/methanol/0.1 M ammonium formate/formic acid (4:2:1:0.07:0.035, w/w) 5.9 min linear gradient: 0 min 100% A, 0.5 min 75% A, 5.9 min 10% A; followed by 0% A until 6.7 min; re-equilibration at 100% A until 7.7 min; flow rate 600 μL/min; column temperature 40 °C HILIC (ZIC-HILIC, 2.1 × 100 mm, 3.5 μm, Supelco) gradient elution was performed with mobile phase C, acetonitrile/water (99:1, v/v) with 0.2% (v) acetic acid, and D, 7 mM ammonium acetate with 0.2% (v) acetic acid (5.0 min linear gradient: 0 min 100% C, 5 min 10% C; followed by a linear gradient back to 100%C until 6.5 min; re-equilibration at 100% C until 7.5 min; flow rate 600 μL/min; column temperature 40 °C.). Two LC-MS systems with identical configuration were used for the analysis. Normalization to lyophilized reference samples (see below) was used to compensate for variation from between analytical batches. The efficiency of this normalization procedure was checked by principal component analysis (PCA), confirming that Pool samples from different analytical batches clustered together.
Reference samples derived from lyophilized untreated HepG2 cells (technical control samples) were measured in parallel throughout the entire analytical process. Data were normalized against the median of these lyophilized HepG2 cells reference samples, to give normalized ratios (performed for each sample per metabolite). This compensated for inter- and intra-instrumental variation. To correct for small differences in cell numbers within and between different treatment groups, data were also normalized to the within sample median, as described in detail by (Ramirez et al. [2018]). For intracellular metabolomic analysis, the median of each sample was calculated across all the 221 measured metabolites.
To generate metabolic profiles for the different treatments, heteroscedastic t test (Welch test) was applied to log-transformed normalized metabolite data to compare treated groups with their respective controls.
Principal component analysis (PCA) and hierarchical clustering (HCA) analyses were performed using R software environment (https://www.r-project.org/). PCA was conducted using the ropls package (Thévenot et al. [2015]) with log10-transformed input data and standard scaling. HCA was performed using the pvclust package (Suzuki et al. [2019]), (https://CRAN.R-project.org/package=pvclust). Input: log10(Ratio), clustering method: Ward D2, distance method: Manhattan, bootstrapping: 10000 times.

Q: `Cc1cccc(Nc2cc(Cl)nc(SCC(=O)O)n2)c1C` [Wy-14643] was tested. Which “PCA cluster of metabolic profile (mode of action)” value (from here on “PCA cluster of metabolic profile”) did it give?
A: peroxisome proliferators cluster

Q: Which “PCA cluster of metabolic profile” value does the source give for `CC(=O)N1CCN(c2ccc(OCC3COC(Cn4ccnc4)(c4ccc(Cl)cc4Cl)O3)cc2)CC1` (stereo not drawn) [Ketoconazole] here?
A: liver enzyme inhibitor

Q: Which “PCA cluster of metabolic profile” value does the source give for `CC(C)(Oc1ccc(CCNC(=O)c2ccc(Cl)cc2)cc1)C(=O)O` [Bezafibrate] here?
A: peroxisome proliferators cluster

Q: How did the “PCA cluster of metabolic profile” value turn out when `O=c1cc(-c2ccccc2)oc2ccc3ccccc3c12` [β-naphthoflavone] was run?
A: liver enzyme inducers cluster

Q: How did the “PCA cluster of metabolic profile” value turn out when `O=C(O)c1cc(Oc2ccc(C(F)(F)F)cc2Cl)ccc1[N+](=O)[O-]` [Acifluorfen] was run?
A: peroxisome proliferators cluster

Q: For `CCC(CC)Nc1c([N+](=O)[O-])cc(C)c(C)c1[N+](=O)[O-]` [Pendimethalin], which “PCA cluster of metabolic profile” value is on record?
A: liver enzyme inducers cluster

Reference: publication PMC10693528, “A high-throughput metabolomics in vitro platform for the characterization of hepatotoxicity” (Cell Biology and Toxicology, 2023)
